Experimental data: US9066960B2, “Use of the effective fraction of alkaloids from mulberry twig in preparing hypoglycemic agents” (INSTITUTE OF MATARIA MEDICA, CHINESE ACADEMY OF MEDICAL …, priority 2006, dated 2015)
Values after ≈ are worked out from the molar mass of the structure shown. At least one compound was matched to its structure with a doubt left.

Molecular target: maltase
Test: In vitro maltase inhibition (α-glucosidase inhibition activity)
Format: biochemical

C[C@H]1O[C@H](O[C@H]2[C@H](O)[C@@H](O)[C@@H](O[C@H]3[C@H](O)[C@@H](O)C(O)O[C@@H]3CO)O[C@@H]2CO)[C@H](O)[C@@H](O)[C@@H]1N[C@H]1C=C(CO)[C@@H](O)[C@H](O)[C@H]1O (stereo partly shown) [Arcarbose, Acarbose]
IC50, maltase: 0.0393 µg/mL (≈ 0.0609 µM)
